# Source: the supplement of paper PMC7858590
# Where “and” joins values, the source holds several entries; their conditions need not be identical. Equal entries are not always repeated. ± gives the standard deviation of the averaged measurements. The full ranking holds about 3,800 compounds; the median of “cell shape (eccentricity) Z-score vs DMSO control” is about 1.1, and the lowest 2% start at about -4.7. The list shows a part of the results. Residues, ends and D or L forms follow the SMILES beside them.
# Test system: human monocyte-derived macrophages (M0)
# Assay: cell shape (eccentricity) Z-score vs DMSO control; higher = more elongated, M2-like morphology
# Details: 20 µM; 24 h; macrophage state: M0 (M-CSF)
row,Compound,cell shape (Z-score)
1,COC(=O)[C@]1(C)CCC[C@@]2(C)[C@H]1CC=C(C)[C@@H]2CCc1ccoc1,-0.638
2,CC(=O)N1CCN(C)CC1,0.925
3,C=C1C2CCC3C(CCC4[C@]3(C)CCC[C@]4(C)C(=O)O)(C2)C1OC(=O)/C(C)=C\C (stereo not given in full),-1.42
4,COc1cc(O)c(C)c(O)c1,-0.139
5,CC(CCC(=O)O)[C@H]1CCC2C3C(=O)C[C@@H]4CC(=O)CC[C@]4(C)C3CC(=O)[C@@]21C (stereo not given in full),1.32
6,O=C(NCCc1ccc(O)c(O)c1)C12CC3CC(CC(C3)C1)C2,0.196
7,O=C1CC2(CCCC2)CC(=O)N1CCNCC1COc2ccccc2O1 (stereo not given),-0.253
8,COc1cc2c(cc1OC)C(=O)C(CC1CCN(Cc3ccccc3)CC1)C2 (stereo not given),-1.94
9,COc1cc2c(=O)c(-c3ccc(O)cc3)coc2cc1O[C@@H]1O[C@@H](C)[C@H](O)[C@@H](O)[C@H]1O,2.24
10,O=c1cc(-c2ccccc2)oc2cccc(O)c12,3.32
11,COc1c(OC2OC(CO)C(O)C(O)C2O)ccc(O)c1C(=O)OCc1ccccc1O[C@@H]1O[C@H](CO)[C@@H](O)[C@H](O)[C@H]1O (stereo not given in full),1.05 ± 1.1
12,C=C1CC[C@@H]2[C@](C)(CO)[C@H](O)CC[C@@]2(C)[C@@H]1CC(O)C1=CCOC1=O (stereo not given in full),-2.2 ± 3.4
13,Cc1noc(NS(=O)(=O)c2ccc(N)cc2)c1C,2.76
14,COC(=O)c1c(C)c2c(c(C)c1O)OC(=O)c1c(C)c(Cl)c(O)c(Cl)c1O2,1.07
15,COC(=O)C(Cc1ccccc1)NC(=O)c1ccccc1 (stereo not given),1.39
16,COc1cc(/C=C/C(=O)O)cc(OC)c1O,1.22
17,COc1ccc2c(=O)c(CC(=O)O)coc2c1,4.13
18,C/C=C1\C(O[C@@H]2O[C@H](CO)[C@@H](O)[C@H](O)[C@H]2O)OC=C(C(=O)OC)C1CC(=O)OC[C@H]1O[C@@H](OCCc2ccc(O)cc2)[C@H](OC(=O)CC2C(C(=O)OC)=COC(O[C@@H]3O[C@H](CO)[C@@H](O)[C@H](O)[C@H]3O)/C2=C\C)[C@@H](O)[C@@H]1O (stereo not given in full),0.709
19,CC1(C)Oc2ccc(C#N)cc2C(N2CCCC2=O)C1O (stereo not given),3.24
20,O=c1cc(-c2ccc(O)cc2)oc2cc(OC3OC(CO)C(O)C(O)C3OC3OCC(O)(CO)C3O)cc(O)c12 (stereo not given),4.18
21,COc1ccc([C@@H]2CNC(=O)C2)cc1OC1CCCC1,4.04
22,COc1ccc(C(=O)c2ccc(O)cc2)c(O)c1O,2.93
23,CCC(=O)NC1Cc2ccccc2C(c2ccccc2)C1 (stereo not given),3.31

# Of the compounds above, 3 have a carbonyl joined to an NH by a bond outside any ring.
row,Compound,cell shape (Z-score)
6,O=C(NCCc1ccc(O)c(O)c1)C12CC3CC(CC(C3)C1)C2,0.196
15,COC(=O)C(Cc1ccccc1)NC(=O)c1ccccc1 (stereo not given),1.39
23,CCC(=O)NC1Cc2ccccc2C(c2ccccc2)C1 (stereo not given),3.31

# Continuation:

row,Compound,cell shape (Z-score)
1,N#C/C(=C\c1ccc(O)c(O)c1)C(N)=O,1.86
2,C/C(=C\CC(C)(C)CCC(=O)c1ccoc1)C(=O)O,0.165
3,COc1cc(O)c2c(c1)O[C@H](c1ccc(O)c(O)c1)[C@@H](O)C2=O,0.924
4,O=c1cc(-c2ccccc2F)[nH]c2cc3c(cc12)OCO3,5.49
5,C=CCSCC1Nc2cc(Cl)c(S(N)(=O)=O)cc2S(=O)(=O)N1 (stereo not given),2.47
6,O=C(O)c1cc2cc(OCc3ccccc3)ccc2[nH]1,1.63
7,C[C@@H]1CC2C3CCC4=CC(=O)C=C[C@]4(C)[C@@]3(F)[C@@H](O)C[C@]2(C)[C@H]1C(=O)CO (stereo not given in full),2.43
8,C=CC(C)(C)c1[nH]c2ccccc2c1C1C(=O)C(=O)C(c2c[nH]c3c(CC=C(C)C)cccc23)C(=O)C1=O (stereo not given),2.71
9,CCCCC[C@@H](O)[C@H]1C(=O)O[C@H](C)[C@@H](O)/C=C/C=C/C=C/C=C/C=C(\C)[C@@H](O)C[C@H](O)C[C@H](O)C[C@H](O)C[C@H](O)C[C@H](O)C[C@@H]1O,-1.02
10,Cn1cc(-c2ccc3nnc(Sc4ccc5ncccc5c4)n3n2)cn1,2.75
11,C[C@H]1[C@H](C)CC[C@]2(C(=O)O)CC[C@]3(C)C4=CCC5C(C)(C)[C@@H](O[C@@H]6O[C@H](C(=O)O)[C@@H](O)[C@H](O)[C@H]6O)CC[C@]5(C)C4CC[C@@]3(C)[C@H]12 (stereo not given in full),0.578
12,CC(C)N1CCN(c2ccc(C(=O)c3c(-c4ccc(O)cc4)sc4cc(O)ccc34)cc2)CC1,1.37
13,C/C(=C/CCC(CO)C1CCC2(C)C3CCC4C(C)(C)C(OC5OC(CO)C(O)C(O)C5O)CC(O)C45CC35CCC12C)COC1OC(CO)C(O)C(O)C1O (stereo not given),1.23
14,CC(=O)Nc1ccc(O)cc1,-2.38
15,COc1cc(Nc2cc(C#N)nc3cc(OCCCN4CCN(C)CC4)c(OC)cc23)c(Cl)cc1Cl,37.1
16,C=C[C@@]1(C)CCC2=C(C1)C(=O)CC1[C@](C)(C(=O)O)CCC[C@]21C (stereo not given in full),-0.98
17,c1ccc2c(Oc3nc(Nc4ccc(N5CCOCC5)cc4)c4ncn(C5CCCCC5)c4n3)cccc2c1,4.3 and 9.74
18,COc1c2c(c(O)c3c(=O)c4c(OC)c(O)ccc4oc13)C1CCCC(C)(O2)O1 (stereo not given),0.966
19,CN1CCN(C(c2ccccc2)c2ccccc2)CC1,1.87
20,CC(C)C(=O)c1c(C(C)C)nn2ccccc12,1.96
21,Nc1ccc(-c2cccs2)cc1NC(=O)c1ccc(C(=O)NCCc2ccncc2)cc1,1.41
22,COC(=O)[C@H](Cc1ccccc1)NC(=O)[C@@H](N)CC(=O)O (H-Asp-Phe-OMe),0.788
